Results as given in patent US12173317B2, “Use of histone modifiers to reprogram effector T cells” (Board of Regents, The University of Texas System, priority 2018, dated 2024).
For at least one compound, name, drawing or mass did not settle the structure.

Key:
[1] = system: histone H3 acetylation (AcH3); test: Western blot of H3 acetylation (AcH3) level; assay type: cell-based, human; settings: H3 and β-actin as loading controls
Text: Western Blot analysis: Equal number of cells was lysed in 2×SDS loading buffer and loaded for immunoblot analysis with different antibodies (Cell Signaling). Anti-β-actin-HRP was from Santa Cruz Biotech. β-actin was used as the loading control for all immunoblot experiments. The results were quantified using ImageJ and normalized to the density of actin in the corresponding samples.

[2] = system: tumor infiltrating lymphocytes (TILs); test: CD28 and CD62L levels on TILs expanded by REP; assay type: cell-based, human; settings: expanded 2 weeks, CD8+ gate
[3] = system: tumor antigen-specific CTL lines; test: REP and mini-REP expansion fold of CTLs; assay type: cell-based, human; settings: regular REP, 2 weeks
Method: The TILs were cultured from patient melanoma tumors. […] After 14 days, cells were used for further analyses. For studies with SAHA (FIG. 2), SAHA was used at […].
Mini-REP was started scaling down from T25 flasks to 24-well plates accordingly. IL-21 and Panobinostat dose remained unchanged.
To examine the clinical applicability of Panobinostat (Pano) in the setting of antigen-specific ACT, MART1 (M27)-specific effector/effector memory cells generated via the ETC approach were used and expanded in vitro by REP, as previously described (Yee, 2014). Cells were expanded with four different protocols (regular, adding IL-21 alone, adding Pano alone, or IL-21+Pano). […] It was posited that Panobinostat, like SAHA, enabled STAT3 and other transcription factors/cofactors to access binding sites and induce CD28 and CD62L expression.
The TILs were cultured from patient melanoma tumors. […] After 14 days, cells were used for further analyses.

[4] = system: antigen-specific CTL cell lines; test: CD28 and CD62L levels on CTLs expanded by REP; assay type: cell-based, human; settings: 2 weeks
expanded CTLs = test: CFSE proliferation of expanded CTLs with IL-2 or IL-15; assay type: cell-based, human; settings: 2 days
Method: The expanded TILs/CTLs were also stained with antibodies against CD8 and CD132 and analyzed using the CD8^+ gate. […] In addition, the expanded CTLs were labeled with carboxyfluorescein succinimidyl ester (CFSE) and cultured with IL-2 or IL-15 for 2 days to check cell division. […] (FIG. 4B).
Central memory function associated with the IL-21/Pano-induced CD28^+CD62L^+ population was evaluated by the ability of these central memory-like T cells to undergo homeostatic proliferation in response to IL-7 and IL-15. ETC cells expanded with four different protocols (regular, adding IL-21 alone, adding Pano alone, or IL-21+Pano) were labeled with CFSE and cultured with IL-2, IL-7 or IL-15 for 2 days. […] Adding Panobinostat alone to REP increased cell proliferation in response to IL-15 but not to IL-2. […] Since IL-2 and IL-15 share CD132 (γC) and CD122 receptor subunits, CD132 and CD122 levels were assessed on the surface of these cells.

[5] = system: tumor infiltrating lymphocytes (TILs); settings: clinical-relevant TIL expansion (Grex REP)

## Cc1[nH]c2ccccc2c1CCNCc1ccc(/C=C/C(=O)NO)cc1 [Panobinostat]
[1]
  AcH3 level by western blot: dose-dependent increase
[2]
  central memory markers CD28 and CD62L on TILs (percentage of central memory T cells): effect similar to that of SAHA
[3]
  expansion yield / expansion fold: slightly reduced
[4]
  CD28+CD62L+ cell population (central-memory-like T cells): induced
Expanded CTLs
  proliferation in response to IL-2: not
  proliferation in response to IL-15: increased
[5]
  expansion fold / product yield: reduced the product yield in one TIL line
